From US6592885B2, “Method for making infection-resistant fabricated textile articles for biomedical applications” (priority 2001, dated 2003)
Entries after “also recorded” stand apart in the source; their conditions may differ.

What was measured:
S. aureus = assay: MIC/MBC of native and heated Cipro/Oflox (heat stability); assay type: cell-based, Staphylococcus aureus; conditions: heated versus native antibiotic
Experimental: An inoculum of S. aureus was diluted to obtain a bacterial concentration of 10^6 S. aureus/ml. […] V. Mosby, St. Louis, 1986]. Antibiotic concentrations in the assay were […].

[1] = Structural stability to heating conditions, dye bath analysis via HPLC; assay type: physicochemical; conditions: heating conditions utilized in pad/heat dyeing; data not shown

O=C(O)c1cn(C2CC2)c2cc(N3CCNCC3)c(F)cc2c1=O [Cipro, Ciprofloxacin]
antimicrobial activity (MIC/MBC) after exposure to standard dye bath / pad/heat heating conditions (S. aureus): retained; also recorded: no variation in antimicrobial activity
structural stability upon dye bath analysis via HPLC [1]: no structural degradation
